Patent US20050288222A1, “Methods for enhancing the bioavailability of a drug” (priority 2000, published 2005)

By UniProt entry, the sequences of proteins in these tests, tags left out. Residues count along the entry.
UniProt P05067, 672-711 limits assumed: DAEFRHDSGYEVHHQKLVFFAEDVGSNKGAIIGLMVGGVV

Target: B-amyloid (Homo sapiens, UniProt P05067)
Assay: KD of potent B-amyloid aggregation inhibitors (Table II)
Type: binding

Compound	Kd [nM]
CC(C)C[C@@H](NC(=O)c1ccc(O)cc1)C(=O)N[C@@H](C(=O)N[C@H](Cc1ccccc1)C(=O)N[C@H](Cc1ccccc1)C(=O)N[C@H](C)C(N)=O)C(C)C [PPI-558, 4-Hydroxybenzoyl-D-Leu-D-Val-D-Phe-D-Phe-D-Ala-NH2]	2.82
CN[C@H](CC(C)C)C(=O)N[C@@H](C(=O)N[C@H](Cc1ccccc1)C(=O)N[C@H](Cc1ccccc1)C(=O)N[C@H](CC(C)C)C(N)=O)C(C)C [PPI-1019, N-methyl-(D-Leu-D-Val-D-Phe-D-Phe-D-Leu)-NH2]	0.5
